29 compounds from PubChem BioAssay AID248 (DTP/NCI, 2004) can be followed below.

The list shows only some results of the screen, not a fair sample: it gathers tests that were run many times, whatever their T/C, doses with no T/C, and many T/C values between a quarter and a half above the control. Further doses and runs are listed elsewhere. T/C is the treated group as % of the vehicle group. Some entries give survivors of the animals treated and no T/C: the source holds a T/C of zero for them, seemingly a mark for toxic or unscored doses. Some doses without a T/C left all or most animals alive at the check, yet need not have been tolerated: survival well below the control is almost never listed, so the zero probably covers shortened survival too. Survivors were counted at the toxicity check, usually on the fifth day, unless a day is given; later deaths do not show. Schedule codes are those of the source, taken here to give the interval after Q, in days (D) or hours (H), and the number of doses after X. Some schedule codes hold Z or #, which are not explained here. Some molecules as drawn cover several salts, stereoisomers or complexes of the source; a dose is that of the sample tested. Some entries hold several experiments; their values stand side by side, smallest first. Where survival is the endpoint, this PubChem deposit counts one and a half times the control or more as active, and values a quarter to a half above the control carry no call in these data; other NCI protocols may use other cut-offs. Some T/C values carry the count of animals alive at the toxicity check (mostly the fifth day); without a count, all were alive then.

This experiment has as its system L1210 leukemia ip in BDF1 mice, survival T/C. The experiment can be described thus: NCI In Vivo Anticancer Drug Screen. Data for tumor model L1210 Leukemia (intraperitoneal) in B6D2F1 (BDF1) mice. Particulars: T/C endpoint: mean survival time, higher T/C = longer survival.
Setting [1] is: dose: 200.0 mg/kg/injection, schedule: Q01DX009 (ip), vehicle: Klucel (hydroxypropylcellulose) (HPC).
[2] abbreviates: dose: 400.0 mg/kg/injection, schedule: Q04DX003 (ip), vehicle: Klucel (hydroxypropylcellulose) (HPC).
Setting [3] is: dose: 300.0 mg/kg/injection, schedule: Q01DX001 (ip), vehicle: saline.
[4] abbreviates: dose: 400.0 mg/kg/injection, schedule: Q04DX002 (ip), vehicle: saline with Tween-80.
Where [5] appears, read: dose: 100.0 mg/kg/injection, schedule: Q01DX009 (ip), vehicle: saline.
[6] abbreviates: dose: 200.0 mg/kg/injection, schedule: Q01DX009 (ip), vehicle: saline with Tween-80.
Setting [7] is: dose: 400.0 mg/kg/injection, schedule: Q01DX009 (ip), vehicle: Klucel (hydroxypropylcellulose) (HPC).
The mark [8] stands for this setting: dose: 50.0 mg/kg/injection, schedule: Q04DX003 (ip), vehicle: saline with Tween-80.
Where [9] appears, read: dose: 100.0 mg/kg/injection, schedule: Q04DX003 (ip), vehicle: saline with Tween-80.
Where [10] appears, read: dose: 200.0 mg/kg/injection, schedule: Q04DX003 (ip), vehicle: saline with Tween-80.
Setting [11] is: dose: 400.0 mg/kg/injection, schedule: Q04DX003 (ip), vehicle: saline with Tween-80.

Take `COc1ccc(N=C=Nc2ccc(OC)cc2)cc1`: the survivor count reads like this: (dose: 50.0 mg/kg/injection, schedule: Q01DX009 (ip), vehicle: Klucel (hydroxypropylcellulose) (HPC)) 2 of 6; (dose: 100.0 mg/kg/injection, schedule: Q01DX009 (ip), vehicle: Klucel (hydroxypropylcellulose) (HPC)) 0 of 6; (dose: 100.0 mg/kg/injection, schedule: Q04DX003 (ip), vehicle: Klucel (hydroxypropylcellulose) (HPC)) 4 of 6; under setting [1], 0 of 6; (dose: 200.0 mg/kg/injection, schedule: Q04DX003 (ip), vehicle: Klucel (hydroxypropylcellulose) (HPC)) 0 of 6; under setting [2], 1 of 6.

Regarding `COc1cccc(CCNC(=O)CC#N)c1OC`, for the setting “dose: 400.0 mg/kg/injection, schedule: Q01DX009 (ip), vehicle: saline”, the survivor count is reported as 5 of 6.

For `CCCC/C=C(/C)C1(CC)C(=O)NC(=O)NC1=O`, the survivor count under setting [3] is 0 of 6 and 1 of 6.

With `COC1=C(N=[N+]=[N-])C(=O)c2ccccc2C1=O`, the survivor count (dose: 25.0 mg/kg/injection, schedule: Q04DX002 (ip), vehicle: saline with Tween-80) was 0 of 3; the survivor count (dose: 100.0 mg/kg/injection, schedule: Q04DX002 (ip), vehicle: saline with Tween-80) is listed as 0 of 3; the survivor count (dose: 200.0 mg/kg/injection, schedule: Q04DX002 (ip), vehicle: saline with Tween-80) is listed as 0 of 3; the survivor count under setting [4] is given as 0 of 3.

`CC1(Cl)C(=O)NC(=O)NC1=O`: the survivor count (dose: 100.0 mg/kg/injection, schedule: Q04DX003 (ip), vehicle: saline) was 0 of 6.

As to `CCOC(=O)CCC(NC(=O)N(CCCl)CCCl)C(=O)OCC` (stereo unspecified), the T/C (dose: 62.5 mg/kg/injection, schedule: Q01DX Z (ip), vehicle: water) was 137 % of control; the T/C under setting [5] is 125 % of control [5 of 6 alive]; the T/C (dose: 125.0 mg/kg/injection, schedule: Q01DX Z (ip), vehicle: water) was 144 % of control; the T/C (dose: 200.0 mg/kg/injection, schedule: Q01DX009 (ip), vehicle: saline) was 133 % of control.

`O=C(O)c1cc(Br)c(Br)s1`: the survivor count under setting [6] is listed as 3 of 6.

In the case of `O=C(O)c1cc(C(F)(F)F)nc2c1ccc1ccccc12`, the survivor count under setting [3] is recorded as 2 of 6.

As for `C[C@]12CCC(=O)C=C1[C@@H](F)C[C@@H]1[C@@H]2[C@@H](O)C[C@@]2(C)[C@H]1CC[C@]2(O)C(=O)CO`, the survivor count (dose: 600.0 mg/kg/injection, schedule: Q01DX015 (ip), vehicle: saline) is 4 of 6.

As for `CN(C)CC1CCCCC1OC(=O)c1ccccc1` (stereo unspecified), the survivor count under setting [6] is on record as 0 of 3.

In the case of `S=c1c2[nH]cnc2ncn1C1CCCC1`, under “dose: 22.0 mg/kg/injection, schedule: Q01DX009 (ip), vehicle: saline with Tween-80”, the T/C was 125 % of control. Moreover, the survivor count is, setting by setting: (dose: 40.0 mg/kg/injection, schedule: Q01DX001 (ip), vehicle: other) 2 of 6; (dose: 50.0 mg/kg/injection, schedule: Q01DX009 (ip), vehicle: saline with Tween-80) 1 of 6; (dose: 80.0 mg/kg/injection, schedule: Q01DX001 (ip), vehicle: other) 0 of 6; (dose: 100.0 mg/kg/injection, schedule: Q01DX001 (ip), vehicle: other) 0 of 6; (dose: 200.0 mg/kg/injection, schedule: Q01DX001 (ip), vehicle: other) 0 of 6; (dose: 400.0 mg/kg/injection, schedule: Q01DX001 (ip), vehicle: other) 0 of 6.

In the case of `O=C(NCCCl)NC1CC1c1ccccc1` (stereo unspecified), under “dose: 300.0 mg/kg/injection, schedule: Q01DX001 (ip), vehicle: other”, the survivor count is reported as 3 of 6.

Consider `Clc1ccc2sc3c(c2c1)CCNC3`, for which the survivor count is recorded as 4 of 4 (dose: 50.0 mg/kg/injection, schedule: Q04DX003 (ip), vehicle: Klucel (hydroxypropylcellulose) (HPC)) and 1 of 4 under setting [2].

As to `O=C1c2cc(Cl)cc(Cl)c2-c2c(NC(=O)C(Cl)Cl)cc(Cl)cc21`, the survivor count by setting is: under setting [1], 3 of 6; under setting [7], 0 of 6.

In the case of `CCCNC(=NC)c1ccc(NC(=O)c2ccc(C(=O)Nc3ccc(C(=NC)NCCC)cc3)cc2)cc1`, the T/C is 127 % of control (dose: 2.4 mg/kg/injection, schedule: Q01DX Z (ip), vehicle: saline); 125 % of control (dose: 5.5 mg/kg/injection, schedule: Q01DX Z (ip), vehicle: saline); 130 and 148 % of control (dose: 12.5 mg/kg/injection, schedule: Q01DX Z (ip), vehicle: saline). Also, the survivor count is on record as 0 of 6 (dose: 18.75 mg/kg/injection, schedule: Q01DX Z (ip), vehicle: saline) and 3 of 6 (dose: 125.0 mg/kg/injection, schedule: Q01DX010 (oral), vehicle: saline).

As to `CC(CN1CCCC1)C(O)(Cc1ccccc1)c1ccccc1` (stereo unspecified), the survivor count is on record as 1 of 6 under setting [5]; 1 of 6 (dose: 200.0 mg/kg/injection, schedule: Q04DX003 (ip), vehicle: saline); 0 of 6 (dose: 400.0 mg/kg/injection, schedule: Q04DX003 (ip), vehicle: saline).

As to `COc1ccc(OC)c(/C=C/c2cccn[n+]2C)c1`, under setting [6], the survivor count was 3 of 3.

For the compound `Cc1cc(N(CCCl)CCCl)ccc1C=Nc1ccccc1C(=O)O`, the survivor count (dose: 800.0 mg/kg/injection, schedule: Q01DX001 (ip), vehicle: Klucel (hydroxypropylcellulose) (HPC)) is 1 of 6.

`CC(=O)OCCSC#N`: the survivor count runs as follows: under setting [8], 0 of 6; under setting [9], 0 of 6; under setting [10], 0 of 6; under setting [11], 0 of 6.

For `O=C(CCCCCCC(=O)C[n+]1ccccc1Br)C[n+]1ccccc1Br`, the survivor count by setting is: (dose: 50.0 mg/kg/injection, schedule: Q01DX001 (ip), vehicle: saline) 0 of 6; (dose: 100.0 mg/kg/injection, schedule: Q01DX001 (ip), vehicle: saline) 0 of 6; (dose: 200.0 mg/kg/injection, schedule: Q01DX001 (ip), vehicle: saline) 0 of 6.

On to `CSc1ccc(NC(=O)Nc2ccc(Cl)cc2[N+](=O)[O-])cc1`, for which the survivor count under setting [7] is 1 of 6.

For the compound `O=[As](O)(c1cccc(Cl)c1)c1cccc(Cl)c1`, the survivor count is 2 of 6 (dose: 150.0 mg/kg/injection, schedule: Q01DX001 (ip), vehicle: saline) and 0 of 6 under setting [3].

For `CCOC(=O)C(C(C)=O)C(c1cccc(O)c1)C(C(C)=O)C(=O)O` (stereo unspecified), the survivor count under setting [4] was 3 of 3 and the survivor count under setting [11] is 2 of 6.

Turning to `O=C(NCC(S)c1ccc(Cl)cc1)C(F)(F)F` (stereo unspecified), the survivor count runs as follows: under setting [8], 6 of 6; under setting [9], 6 of 6; under setting [10], 6 of 6.

Regarding `COc1cc2c(c(OC)c1OC)-c1ccc(=O)c(OC)cc1[C@@H](NC(=O)CCl)CC2`, the survivor count under setting [7] is 1 of 6.

For `O=C1OCCN1S(=O)(=O)c1ccc([N+](=O)[O-])cc1`, the survivor count (dose: 400.0 mg/kg/injection, schedule: Q01DX001 (ip), vehicle: Klucel (hydroxypropylcellulose) (HPC)) was 6 of 6.

Regarding `COC1=C2C=[N+](C)C3C(=C2C=CC1OC)Cc1cc2c(cc13)OCO2` (stereo unspecified), where the note is “dose: 400.0 mg/kg/injection, schedule: Q01DX001 (ip), vehicle: carboxymethylcellulose (CMC)”, the survivor count was 2 of 4.

For `S=C(Nc1ccc(C2=NCCN2)cc1)c1ccc(C(=S)Nc2ccc(C3=NCCN3)cc2)cc1`, the T/C (dose: 8.0 mg/kg/injection, schedule: Q01DX Z (ip), vehicle: saline) was 130 % of control; the T/C (dose: 16.0 mg/kg/injection, schedule: Q01DX Z (ip), vehicle: saline) was 136 % of control; the T/C (dose: 120.0 mg/kg/injection, schedule: Q01DX Z (ip), vehicle: carboxymethylcellulose (CMC)) was 137 % of control.

As to `COc1cc(OC(=O)Nc2ccc([N+](=O)[O-])cc2OC)ccc1C=O`, the survivor count was 6 of 6 under setting [1] and 4 of 6 under setting [7].
